Experimental data published in publication PMC6852550.
No constants are given. Whether binding was seen depends on the method and setting. In cells and extracts the contact can be indirect. For some of these results: Binding calls can cover weak binding; strength is not graded here. Sequences can lack the tags named with a protein.

The chains behind the UniProt entries cited, without tags or fusion partners. Where a name states a change or a piece, a line headed by the entry shows the natural chain unless it says otherwise.
UniProt Q8W5S1: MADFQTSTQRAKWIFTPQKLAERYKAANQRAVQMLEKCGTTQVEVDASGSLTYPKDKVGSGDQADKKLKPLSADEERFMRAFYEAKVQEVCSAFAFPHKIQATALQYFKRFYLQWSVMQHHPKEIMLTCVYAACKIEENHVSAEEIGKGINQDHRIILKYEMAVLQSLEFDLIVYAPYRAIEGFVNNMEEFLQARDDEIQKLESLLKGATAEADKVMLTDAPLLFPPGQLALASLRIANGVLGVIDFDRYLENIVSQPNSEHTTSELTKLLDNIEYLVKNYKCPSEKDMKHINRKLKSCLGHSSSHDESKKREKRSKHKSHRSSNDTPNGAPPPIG

How the values were obtained:
Assay in all cases: co-IP; GFP-Trap agarose on 20 mg total protein extract of 14- to 15-day-old Arabidopsis seedlings co-expressing the two tagged proteins; 2 h at 4°C; washed with 50 mM Tris-HCl pH 7.5, 300 mM NaCl; western blot with anti-RFP, anti-HA and anti-GFP antibodies
[1] = biological target: T1, CDKD;1:GFP (CYCLIN-… KINASE D;1 with C-terminal GFP) (Arabidopsis thaliana) (UniProt Q9C9U2)
T1 sequence: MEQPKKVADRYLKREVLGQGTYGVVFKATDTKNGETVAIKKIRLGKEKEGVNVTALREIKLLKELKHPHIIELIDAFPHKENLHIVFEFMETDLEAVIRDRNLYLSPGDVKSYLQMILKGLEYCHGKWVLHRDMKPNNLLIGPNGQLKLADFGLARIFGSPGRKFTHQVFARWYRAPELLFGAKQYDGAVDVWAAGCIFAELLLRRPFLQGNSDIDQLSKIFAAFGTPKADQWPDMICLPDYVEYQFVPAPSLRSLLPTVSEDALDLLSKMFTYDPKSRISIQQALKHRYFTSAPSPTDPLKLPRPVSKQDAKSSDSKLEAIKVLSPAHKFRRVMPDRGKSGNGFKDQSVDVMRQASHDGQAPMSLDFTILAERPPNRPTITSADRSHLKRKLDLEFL

[2] = biological target: T2, CDKD;2:GFP–PIPL (CYCLIN-… KINASE D;2 with C-terminal GFP and PIPL tag) (Arabidopsis thaliana) (UniProt Q9C9M7)
T2 sequence: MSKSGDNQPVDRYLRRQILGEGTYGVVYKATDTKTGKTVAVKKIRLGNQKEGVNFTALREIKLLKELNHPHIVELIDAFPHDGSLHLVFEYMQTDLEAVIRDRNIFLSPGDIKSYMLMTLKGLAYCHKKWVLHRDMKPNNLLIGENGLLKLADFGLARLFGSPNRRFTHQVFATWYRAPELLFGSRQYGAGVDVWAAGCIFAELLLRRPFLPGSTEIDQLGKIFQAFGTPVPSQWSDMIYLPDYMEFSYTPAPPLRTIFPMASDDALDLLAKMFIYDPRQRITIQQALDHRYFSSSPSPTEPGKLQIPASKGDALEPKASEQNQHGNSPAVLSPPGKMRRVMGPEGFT

[3] = biological target: T3, CDKD;3:GFP (CYCLIN-… KINASE D;3 with C-terminal GFP) (Arabidopsis thaliana) (UniProt Q9LMT0)
T3 sequence: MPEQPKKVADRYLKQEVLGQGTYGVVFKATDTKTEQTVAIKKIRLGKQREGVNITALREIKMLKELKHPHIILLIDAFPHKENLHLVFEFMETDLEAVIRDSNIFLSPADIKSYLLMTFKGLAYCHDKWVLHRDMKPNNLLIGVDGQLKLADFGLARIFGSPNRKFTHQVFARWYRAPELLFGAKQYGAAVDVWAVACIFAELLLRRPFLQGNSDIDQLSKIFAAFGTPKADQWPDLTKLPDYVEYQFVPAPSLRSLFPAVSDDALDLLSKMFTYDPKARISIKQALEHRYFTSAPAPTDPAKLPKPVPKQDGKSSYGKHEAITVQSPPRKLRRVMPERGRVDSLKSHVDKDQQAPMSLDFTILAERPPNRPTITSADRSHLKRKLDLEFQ

[4] = biological target: T4, CDKF;1:GFP–PIPL (CDKD-activating kinase CDKF;1 with C-terminal GFP and PIPL tag) (Arabidopsis thaliana) (UniProt O80345)
T4 sequence: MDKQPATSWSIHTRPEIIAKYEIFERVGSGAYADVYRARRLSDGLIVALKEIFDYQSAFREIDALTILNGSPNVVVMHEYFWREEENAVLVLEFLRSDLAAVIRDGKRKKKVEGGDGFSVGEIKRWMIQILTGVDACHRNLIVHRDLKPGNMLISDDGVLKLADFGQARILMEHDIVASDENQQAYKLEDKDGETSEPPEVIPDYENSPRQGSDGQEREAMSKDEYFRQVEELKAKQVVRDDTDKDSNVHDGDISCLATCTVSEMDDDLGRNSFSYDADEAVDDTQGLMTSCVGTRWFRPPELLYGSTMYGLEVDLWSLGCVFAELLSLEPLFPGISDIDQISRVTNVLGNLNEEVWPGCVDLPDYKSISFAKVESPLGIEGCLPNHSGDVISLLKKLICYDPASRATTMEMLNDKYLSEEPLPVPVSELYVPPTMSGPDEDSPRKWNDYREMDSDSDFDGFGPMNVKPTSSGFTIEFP

CYCH:mCherry (CYCLIN H with C-terminal mCherry) (from UniProt Q8W5S1)
binding [1]: binds
binding [2]: binds
binding [3]: binds
binding [4]: no binding
